The supplement of paper PMC4962491
“And” between values parts separate entries of the source, which are not always exact repeats. Equal values may be shown once. Where a name gives a salt, the structure may show the parent alone. ± gives the standard deviation of the averaged measurements. Only a part is listed here, and it is no random draw. Most values lie within the scatter of the assay; repeated measurements hardly agree.

Test system: FaDu
Experiment: mitochondrial oxygen consumption rate normalised to cell number, Z score over the library; higher = higher oxygen consumption (negative = OCR reduction)
Conditions: treatment time 24 h, assay medium: 5 mM galactose, 5 mM pyruvate, 4 mM glutamine
Experimental: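 Primary screen: FaDu cells were incubated 24 h with Pharmakon 1600 / TDI oncology set compounds at 2 or 10 uM. Mitochondrial-specific OCR (basal minus 2 uM antimycin A) was measured on a Seahorse XF96 in assay medium with 5 mM galactose, 5 mM pyruvate and 4 mM glutamine, then corrected for Hoechst cell number and expressed as a Z score […]. Compounds that cut cell number by >66% were excluded. Two repeats.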

| SMILES | mitochondrial oxygen consumption rate normalised (2 µM) | mitochondrial oxygen consumption rate normalised (10 µM) |
| --- | --- | --- |
| CC(=O)Oc1ccc(C(c2ccc(OC(C)=O)cc2)c2ccccn2)cc1 | 0.134 ± 0.01 |  |
| CCC(C)(C)C(=O)O[C@H]1C[C@@H](C)C=C2C=C[C@H](C)[C@H](CC[C@@H]3C[C@@H](O)CC(=O)O3)[C@H]21 | 0.506 ± 1.2 |  |
| C[C@@H]1CN(c2c(F)c(F)c3c(=O)c(C(=O)O)cn(C4CC4)c3c2F)C[C@H](C)N1 | 0.104 ± 0.0086 |  |
| NNC(=O)c1ccncc1.Nc1ccc(C(=O)O)c(O)c1 | -0.765 ± 0.32 |  |
| CC(O)(CC(=O)O)CC(=O)O | 1.24 ± 0.54 |  |
| CCCc1nn(C)c2c(=O)[nH]c(-c3cc(S(=O)(=O)N4CCN(C)CC4)ccc3OCC)nc12 | 0.477 ± 0.56 |  |
| O=[N+]([O-])c1ccc(O)c2ncccc12 | 0.474 ± 0.078 | -2.21 ± 0.14 |
| NC1CCN(c2c(F)cc3c(=O)c(C(=O)O)cn(C4CC4)c3c2Cl)C1 (stereo not given) | -0.146 ± 0.91 |  |
| CC(=O)Nc1ccc(OC(C)=O)cc1 | 0.372 ± 0.65 |  |
| CCC1(C)CC(=O)NC1=O (stereo not given) | 0.0384 ± 0.26 |  |
| CC(NCCc1ccc(O)cc1)C(O)c1ccc(O)cc1 (stereo not given) | 0.572 ± 0.11 |  |
| CCCNC(C)(C)COC(=O)c1ccccc1 | -0.403 ± 0.22 |  |
| O=S(=O)(c1cccc2cnccc12)N1CCCNCC1 | 0.105 ± 0.29 |  |
| CCc1nn(CCCN2CCN(c3cccc(Cl)c3)CC2)c(=O)n1CCOc1ccccc1 | 0.803 ± 0.83 |  |
| Nc1nc(/C(=C/CC(=O)O)C(=O)N[C@@H]2C(=O)N3C(C(=O)O)=CCS[C@H]23)cs1 | 0.329 ± 1.4 |  |
| NCCCS(=O)(=O)O | 0.496 ± 0.0095 |  |
| CCC(=O)O[C@]1(C(=O)SCF)[C@H](C)C[C@H]2[C@@H]3C[C@H](F)C4=CC(=O)C=C[C@]4(C)[C@@]3(F)[C@@H](O)C[C@@]21C | 0.0879 ± 1.8 |  |
| C[C@H](N[C@@H](CCc1ccccc1)C(=O)O)C(=O)N1Cc2ccccc2C[C@H]1C(=O)O | 0.628 ± 1.2 |  |
| Nc1ccc(/N=N/c2ccccc2)c(N)n1 | -1.02 ± 0.71 |  |
| CN(C)CCOC(=O)C(c1ccccc1)C1(O)CCCC1 (stereo not given) | -0.414 ± 1.6 |  |

| SMILES | mitochondrial oxygen consumption rate normalised (2 µM) | mitochondrial oxygen consumption rate normalised (10 µM) |
| --- | --- | --- |
| CCc1cc(Cl)c(OC)c(C(=O)NC[C@@H]2CCCN2CC)c1O | -1.29 ± 0.25 |  |
| Clc1ccc(C(c2ccccc2Cl)C(Cl)Cl)cc1 (stereo not given) | 0.26 ± 0.45 |  |
| Clc1ccc(C(c2ccccc2Cl)C(Cl)Cl)cc1 (stereo not given) [Mitotane;  o;p'-DDD] | 0.258 ± 0.31 |  |
| O=C1O[C@H]([C@@H](O)CO)C(O)=C1O | 0.715 ± 0.17 |  |
| CC(=O)Nc1ccc(S(=O)(=O)c2ccc(NC(C)=O)cc2)cc1 | -0.481 ± 0.99 |  |
| OCCc1ccccc1 | 0.82 ± 0.87 |  |
| O=C(O)c1ccccc1Nc1cccc(C(F)(F)F)c1 | -0.00453 ± 0.27 |  |
| Nc1ccc(C(=O)O)c(O)c1 | 0.672 ± 0.98 |  |
| CCOC(N)=O | -0.265 ± 0.019 |  |
| O=C1c2cccc(O)c2C(=O)c2c(O)cccc21 | -0.108 ± 1.1 |  |
| CSCC[C@H](NC(=O)[C@H](Cc1c[nH]c2ccccc12)NC(=O)CCNC(=O)OC(C)(C)C)C(=O)N[C@@H](CC(=O)O)C(=O)N[C@@H](Cc1ccccc1)C(N)=O | 0.561 ± 1.5 |  |
| CC(C)NNC(=O)c1ccncc1 | -0.238 ± 0.14 |  |
| OC(CCN1CCCCC1)(c1ccccc1)c1ccccc1 | -0.959 ± 0.83 |  |
| CCCCC(=O)N(Cc1ccc(-c2ccccc2-c2nnn[nH]2)cc1)[C@H](C(=O)O)C(C)C | -0.408 ± 0.51 |  |
| CCN(CC)CCNC(=O)c1cc(Br)c(N)cc1OC | -0.682 ± 0.13 |  |
| Cc1ccc(Nc2nccc(N(C)c3ccc4c(C)n(C)nc4c3)n2)cc1S(N)(=O)=O [Pazopanib HCl] | 0.605 ± 0.26 |  |
| CO[C@H]1C[C@H](O[C@@H]2/C(C)=C/C[C@@H]3C[C@@H](C[C@]4(CC[C@H](C)[C@@H](C5CCCCC5)O4)O3)OC(=O)[C@@H]3C=C(C)/C(=N/O)[C@H]4OC/C(=C\C=C\[C@@H]2C)[C@]43O)O[C@@H](C)[C@@H]1O | 0.631 ± 1.1 |  |
| Cc1nc2sccn2c(=O)c1CCN1CCC(=C(c2ccc(F)cc2)c2ccc(F)cc2)CC1 | -0.216 ± 0.14 |  |
| C[C@H](CCC(=O)O)[C@H]1CC[C@H]2[C@@H]3C(=O)C[C@@H]4CC(=O)CC[C@]4(C)[C@H]3CC(=O)[C@]12C | 0.323 and 0.199 |  |
| COC(=O)/C=C/C(=O)OC | 0.0211 ± 0.47 |  |

3 entries from above in another layout:
SMILES,mitochondrial oxygen consumption rate normalised (2 µM),mitochondrial oxygen consumption rate normalised (10 µM)
Cc1nc2sccn2c(=O)c1CCN1CCC(=C(c2ccc(F)cc2)c2ccc(F)cc2)CC1,-0.216 ± 0.14,
C[C@H](CCC(=O)O)[C@H]1CC[C@H]2[C@@H]3C(=O)C[C@@H]4CC(=O)CC[C@]4(C)[C@H]3CC(=O)[C@]12C,0.323 and 0.199,
COC(=O)/C=C/C(=O)OC,0.0211 ± 0.47,

(list continues)

| SMILES | mitochondrial oxygen consumption rate normalised (2 µM) | mitochondrial oxygen consumption rate normalised (10 µM) |
| --- | --- | --- |
| OC[C@H]1O[C@@H](O[C@H]2[C@H](O)[C@@H](O)C(O)O[C@@H]2CO)[C@H](O)[C@@H](O)[C@H]1O (stereo not given in full) | -0.885 ± 0.082 |  |
| C[N+](C)(C)CCOC(N)=O | 0.487 ± 0.87 |  |
| CC(C)(C)NC[C@H](O)COc1cccc2c1CCCC2=O | -0.373 ± 0.2 |  |
| O=C(NC(Cc1cc(=O)[nH]c2ccccc12)C(=O)O)c1ccc(Cl)cc1 (stereo not given) | -0.591 ± 0.17 |  |
| CN(C)CCc1c[nH]c2ccc(CS(=O)(=O)N3CCCC3)cc12 | 0.0964 ± 0.23 |  |
| N[C@@H](Cc1ccc(O)c(O)c1)C(=O)O | -1.31 ± 1 |  |
| CN1CCN2c3ccccc3Cc3ccccc3C2C1 (stereo not given) | -0.729 ± 0.86 |  |
| O=C(O)CCC(=O)c1ccc(-c2ccccc2)cc1 | 0.854 ± 0.82 |  |
| Cc1ccccc1C(OCCN(C)C)c1ccccc1 (stereo not given) | -0.973 ± 0.92 |  |
| O=C1C(O)=C([C@H]2CC[C@H](c3ccc(Cl)cc3)CC2)C(=O)c2ccccc21 | 0.257 ± 0.84 |  |
| COc1c2ccoc2cc2oc(=O)ccc12 | -0.787 ± 0.19 |  |
| NC(=O)NC1NC(=O)NC1=O (stereo not given) | 0.0997 ± 0.32 |  |
| CN(C)CCOC(c1ccc(Cl)cc1)c1ccccn1 (stereo not given) | 0.627 ± 0.85 |  |
| O=C1CCc2ccc(OCCCCN3CCN(c4cccc(Cl)c4Cl)CC3)cc2N1 | -0.798 ± 0.11 |  |
| COC(=O)C1=C(C)NC(C)=C(C(=O)OCC(C)C)C1c1ccccc1[N+](=O)[O-] (stereo not given) | -0.133 ± 0.059 |  |
| C/C=C(/C)C(=O)O[C@H]1[C@H](OC(C)=O)[C@@]2(CO)C(CC1(C)C)C1=CCC3[C@@]4(C)CCC(O[C@@H]5O[C@H](C(=O)O)[C@@H](O[C@@H]6O[C@H](CO)[C@@H](O)[C@H](O)[C@H]6O)[C@H](O)[C@H]5O[C@@H]5O[C@H](CO)[C@@H](O)[C@H](O)[C@H]5O)[C@](C)(CO)C4CC[C@@]3(C)[C@]1(C)C[C@H]2O.C/C=C(\C)C(=O)O[C@H]1[C@H](OC(C)=O)[C@@]2(CO)C(CC1(C)C)C1=CCC3[C@@]4(C)CCC(O[C@@H]5O[C@H](C(=O)O)[C@@H](O[C@@H]6O[C@H](CO)[C@@H](O)[C@H](O)[C@H]6O)[C@H](O)[C@H]5O[C@@H]5O[C@H](CO)[C@@H](O)[C@H](O)[C@H]5O)[C@](C)(CO)C4CC[C@@]3(C)[C@]1(C)C[C@H]2O (stereo not given in full) | -0.381 ± 0.42 | 0.3 ± 0.096 |
| CN1CCN(c2c(F)cc3c(=O)c(C(=O)O)cn4c3c2SCC4)CC1 | -0.387 ± 0.33 |  |
| COC(=O)C1=C(C)NC(C)=C(C(=O)OCCN(C)Cc2ccccc2)C1c1cccc([N+](=O)[O-])c1 (stereo not given) | 0.597 ± 0.27 |  |
